Experimental data: patent publication US9440933B2, “Azole derivative, method for producing same, intermediate compound, and agricultural or horticultural chemical agent and industrial material protecting agent” (KUREHA CORPORATION, priority 2011, dated 2016)
Some entries share one result that the patent states for a list of compounds. Some compounds share one range, which may span the group rather than tell each member.

What was measured:
[1] = tested on: wheat leaf rust-causing microbe; experiment: Wheat leaf rust-controlling activity (foliar spray, pot test); format: in vivo, Puccinia recondita; conditions: test sample concentration 1 g/ha; wettable powder sprayed on wheat
[2] = tested on: wheat powdery mildew-causing microbes; experiment: Controlling activity to wheat powdery mildew of seed treatment (pot test); format: in vivo, Erysiphe graminis f. sp tritici; conditions: 2 mg in DMSO applied to wheat seeds 1 g, 14 to 28 days after seeding
Experimental: Controlling activity to wheat powdery mildew was examined in a pot test. Each of the inventive compounds […]-53, and a comparative compound (1) was weighed in an amount of 2 mg and dissolved in DMSO (18 μl). The solution thus prepared was applied to wheat seeds 1 g in a vial, 8 wheat seeds were seeded in a 80 cm^2 pot. The wheat was grown, as water was supplied from blow, in a greenhouse where wheat powdery mildew-causing microbes are present abundantly. The incidence rate was determined and the controlling rate and additionally the controlling index calculated 14 to 28 days after seeding. The controlling rate was calculated and the wheat powdery mildew controlling index determined according to the following equation: Controlling rate=(1-Incidence rate in treated region/Incidence rate in non-treated region)×100(%) [table]

Row | SMILES | controlling index [1] | Controlling index Wheat powdery mildew [2]
1 | COC(=O)[C@]1(C)CC[C@@H](Cc2ccc(Cl)cc2)[C@]1(O)Cn1cncn1 (racemic) [Compound I-2, methyl-(1RS,2RS,3SR)-3-(4-chlorobenzyl)-2-hydroxy-1-methyl-2-(1H-1,2,4-triazol-1-ylmethyl)cyclopentanecarboxylate] | 5 (81 to 100) | –
2 | C=CCOC(=O)[C@]1(C)CC[C@@H](Cc2ccc(Cl)cc2)[C@]1(O)Cn1cncn1 (racemic) [Compound I-4, allyl-(1RS,2RS,3SR)-3-(4-chlorobenzyl)-2-hydroxy-1-methyl-2-(1H-1,2,4-triazol-1-ylmethyl)cyclopentanecarboxylate] | – | 5 (Controlling rate: 40 or more)
3 | COC(=O)[C@]1(C)CC[C@H](Cc2ccc(F)cc2)[C@@]1(O)Cn1cncn1 (racemic) [Compound I-53, methyl-(1RS, 2SR,3RS)-3-(4-fluorobenzyl)-2-hydroxy-1-methyl-2-(1H-1,2,4-triazol-1-ylmethyl)cyclopentanecarboxylate] | 5 (81 to 100) | –
4 | COC(=O)[C@]1(C)CC[C@H](Cc2ccc(Cl)cc2)[C@@]1(O)Cn1cncn1 (racemic) [Compound I-132, methyl-(1RS,2SR,3RS)-3-(4-chlorobenzyl)-2-hydroxy-1-methyl-2-(1H-1,2,4-triazol-1-ylmethyl)cyclopentanecarboxylate] | 5 (81 to 100) | –
5 | CC(C)OC(=O)[C@]1(C)CC[C@H](Cc2ccc(Cl)cc2)[C@@]1(O)Cn1cncn1 (racemic) [Compound I-137, isopropyl-(1RS,2SR,3RS)-3-(4-chlorobenzyl)-2-hydroxy-1-methyl-2-(1H-1,2,4-triazol-1-ylmethyl)cyclopentanecarboxylate] | 5 (81 to 100) | –
